Data from paper PMC12589998, “Development and validation of a UHPLC-QqQ-MS/MS method for simultaneous determination of fifteen major components from Oroxyli seed extract in rat plasma and its application in the pharmacokinetic study” (Frontiers in Pharmacology, 2025).

Assay: Extraction recovery of analytes from rat plasma (method validation, sample preparation optimization)
[1] = sample preparation with Acetonitrile
[2] = sample preparation with Ethyl acetate
[3] = sample preparation with Methanol

| SMILES | Extraction recovery [1] [%] | Extraction recovery [2] [%] | Extraction recovery [3] [%] |
| --- | --- | --- | --- |
| O=c1c(O)c(-c2ccc(O)c(O)c2)oc2cc(O)cc(O)c12 [Quercetin, quercetin] | 85 | 86 | 20 |
| O=c1cc(-c2ccccc2)oc2cc(O)cc(O)c12 [Chrysin, chrysin] | 75 | 67 | 72 |
| COc1c(O[C@@H]2O[C@H](C(=O)O)[C@@H](O)[C@H](O)[C@H]2O)cc(O)c2c(=O)cc(-c3ccccc3)oc12 [Wogonoside, wogonoside] | 75 | 8 | 75 |
| COc1c(O)cc2oc(-c3ccc(O)cc3)cc(=O)c2c1O [Hispidulin, hispidulin] | 78 | 73 | 71 |
| O=C(O)[C@H]1O[C@@H](Oc2cc3oc(-c4ccccc4)cc(=O)c3c(O)c2O)[C@H](O)[C@@H](O)[C@@H]1O [Baicalin, baicalin] | 80 | 2 | 69 |
| O=c1cc(-c2ccccc2)oc2cc(O[C@@H]3O[C@H](CO)[C@@H](O)[C@H](O)[C@H]3O)c(O)c(O)c12 [Oroxin A, oroxin A] | 83 | 77 | 67 |
| COc1ccc(-c2cc(=O)c3c(O)cc(O)cc3o2)cc1 [Acacetin, acacetin] | 76 | 81 | 70 |
| O=c1c(O)c(-c2ccc(O)c(O)c2)oc2cc(O[C@@H]3O[C@H](CO)[C@@H](O)[C@H](O)[C@H]3O)cc(O)c12 [Quercetin-7-O-β-D-glucoside, quercetin-7-O-β-D-glucoside] | 73 | 74 | 15 |
| O=c1cc(-c2ccc(O)cc2)oc2cc(O)cc(O)c12 [Apigenin, apigenin] | 79 | 3 | 73 |
| O=c1cc(-c2ccccc2)oc2cc(O[C@@H]3O[C@H](CO[C@@H]4O[C@H](CO)[C@@H](O)[C@H](O)[C@H]4O)[C@@H](O)[C@H](O)[C@H]3O)c(O)c(O)c12 [Oroxin B, oroxin B] | 85 | 8 | 69 |
| COc1c(O)cc2oc(-c3ccccc3)cc(=O)c2c1O [Oroxylin A, oroxylin A] | 78 | 92 | 65 |
| O=c1cc(-c2ccccc2)oc2cc(O)c(O)c(O)c12 [Baicalein, baicalein] | 92 | 64 | 38 |
| COc1c(O[C@@H]2O[C@H](C(=O)O)[C@@H](O)[C@H](O)[C@H]2O)cc2oc(-c3ccccc3)cc(=O)c2c1O [Oroxylin A-7-O-β-D-glucuronide, oroxylin A-7-O-β-D-glucuronide] | 76 | 73 | 56 |
| O=C(O)[C@H]1O[C@@H](Oc2cc(O)c3c(=O)cc(-c4ccccc4)oc3c2)[C@H](O)[C@@H](O)[C@@H]1O [Chrysin-7-O-β-D-glucuronide, chrysin-7-O-β-D-glucuronide] | 80 | 6 | 71 |
| O=c1cc(-c2ccc(O)cc2)oc2cc(O)c(O)c(O)c12 [Scutellarein, scutellarein] | 94 | 87 | 19 |
